Measurements from PMC9287327.
No constants are given. Whether binding was seen depends on the method and setting. For part of these data: In cells and extracts the contact can be indirect. Some binding calls cover weakened binding; strength is not graded here. Tags and fused reporters may be left off the sequences shown.

Sequences of proteins named here, by UniProt entry; tags and fusion partners are left off. Residues count along the entry.
UniProt Q16620, residues 32-822: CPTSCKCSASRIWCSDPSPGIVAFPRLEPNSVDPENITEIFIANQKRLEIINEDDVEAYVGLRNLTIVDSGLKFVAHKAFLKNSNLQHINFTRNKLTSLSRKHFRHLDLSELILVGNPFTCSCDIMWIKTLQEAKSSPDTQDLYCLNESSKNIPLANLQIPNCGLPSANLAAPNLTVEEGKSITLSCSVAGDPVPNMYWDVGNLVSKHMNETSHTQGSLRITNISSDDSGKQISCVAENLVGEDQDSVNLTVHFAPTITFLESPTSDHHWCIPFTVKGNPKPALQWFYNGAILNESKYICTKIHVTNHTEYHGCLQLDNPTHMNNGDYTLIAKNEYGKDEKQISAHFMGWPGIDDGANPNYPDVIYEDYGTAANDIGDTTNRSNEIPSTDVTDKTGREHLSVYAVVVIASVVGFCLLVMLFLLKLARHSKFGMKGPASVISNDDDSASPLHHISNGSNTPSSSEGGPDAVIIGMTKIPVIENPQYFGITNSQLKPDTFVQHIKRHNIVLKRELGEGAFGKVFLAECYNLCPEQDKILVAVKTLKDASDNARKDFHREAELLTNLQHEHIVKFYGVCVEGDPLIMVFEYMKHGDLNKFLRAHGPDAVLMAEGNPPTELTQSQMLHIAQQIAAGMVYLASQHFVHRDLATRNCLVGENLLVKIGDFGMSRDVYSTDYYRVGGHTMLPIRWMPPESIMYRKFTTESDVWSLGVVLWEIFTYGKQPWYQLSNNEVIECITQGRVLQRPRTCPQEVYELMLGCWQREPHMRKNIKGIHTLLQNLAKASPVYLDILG

What was measured:
[1] = target: T1, HA-tagged full-length SLITRK2 wild-type (human) (UniProt Q9H156); assay: cell-surface binding assay; HEK293T cells expressing HA-SLITRK2 or its variants incubated with 10 µg/ml purified PTPδ Fc-fusion protein or IgC alone; confocal microscopy; only the binder purified
T1 sequence: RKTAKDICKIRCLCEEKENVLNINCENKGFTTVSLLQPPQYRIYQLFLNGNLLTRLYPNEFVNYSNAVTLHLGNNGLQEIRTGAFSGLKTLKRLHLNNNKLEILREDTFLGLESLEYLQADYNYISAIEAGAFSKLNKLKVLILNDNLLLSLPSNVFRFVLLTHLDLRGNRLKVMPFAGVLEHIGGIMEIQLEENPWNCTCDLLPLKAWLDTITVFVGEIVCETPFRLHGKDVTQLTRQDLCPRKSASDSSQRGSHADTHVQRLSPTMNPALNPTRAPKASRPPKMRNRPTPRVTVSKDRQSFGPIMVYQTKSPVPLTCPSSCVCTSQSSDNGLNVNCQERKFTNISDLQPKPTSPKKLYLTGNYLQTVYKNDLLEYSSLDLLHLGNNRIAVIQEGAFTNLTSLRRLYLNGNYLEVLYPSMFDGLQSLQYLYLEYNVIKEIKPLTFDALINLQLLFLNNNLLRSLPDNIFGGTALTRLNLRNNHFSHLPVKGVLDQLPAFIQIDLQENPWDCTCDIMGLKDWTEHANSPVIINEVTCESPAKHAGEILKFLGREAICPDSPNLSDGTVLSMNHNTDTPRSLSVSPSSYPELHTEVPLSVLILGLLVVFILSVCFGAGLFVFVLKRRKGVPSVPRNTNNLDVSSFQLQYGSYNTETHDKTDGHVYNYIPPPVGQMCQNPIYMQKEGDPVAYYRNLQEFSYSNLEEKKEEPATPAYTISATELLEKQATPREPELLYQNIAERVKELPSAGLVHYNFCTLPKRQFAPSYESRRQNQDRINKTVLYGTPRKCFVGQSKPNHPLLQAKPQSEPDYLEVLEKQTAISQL

[2] = target: T2, HA-tagged SLITRK2 T312A variant (human) (UniProt Q9H156); assay: as above
T2 sequence: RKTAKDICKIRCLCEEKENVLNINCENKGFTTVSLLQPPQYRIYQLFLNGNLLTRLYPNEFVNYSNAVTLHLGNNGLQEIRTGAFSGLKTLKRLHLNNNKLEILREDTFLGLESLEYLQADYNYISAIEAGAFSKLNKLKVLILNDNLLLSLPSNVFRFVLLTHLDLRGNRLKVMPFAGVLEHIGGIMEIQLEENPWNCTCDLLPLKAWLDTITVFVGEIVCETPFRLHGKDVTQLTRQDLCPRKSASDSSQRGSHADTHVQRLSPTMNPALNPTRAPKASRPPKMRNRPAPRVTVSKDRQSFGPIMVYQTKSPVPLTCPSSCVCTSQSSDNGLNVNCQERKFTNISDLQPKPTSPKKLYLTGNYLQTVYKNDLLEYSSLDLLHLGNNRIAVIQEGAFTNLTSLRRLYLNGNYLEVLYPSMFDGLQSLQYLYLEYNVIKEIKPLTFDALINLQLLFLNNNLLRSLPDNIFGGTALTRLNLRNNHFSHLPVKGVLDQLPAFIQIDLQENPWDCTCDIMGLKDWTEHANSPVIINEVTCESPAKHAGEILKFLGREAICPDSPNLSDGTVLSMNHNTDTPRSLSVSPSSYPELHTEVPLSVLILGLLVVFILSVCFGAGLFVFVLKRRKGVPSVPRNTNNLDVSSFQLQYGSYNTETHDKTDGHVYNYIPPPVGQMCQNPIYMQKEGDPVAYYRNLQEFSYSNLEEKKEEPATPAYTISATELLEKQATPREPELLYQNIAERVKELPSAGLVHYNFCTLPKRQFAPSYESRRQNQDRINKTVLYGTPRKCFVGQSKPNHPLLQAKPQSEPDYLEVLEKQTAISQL

[3] = target: receptor tyrosine kinase TrkB (UniProt Q16620); assay: co-IP; coimmunoprecipitation assays in HEK293T cells

| Binder | binding [1] | binding [2] | binding [3] |
| --- | --- | --- | --- |
| recombinant Ig-fusion protein of PTPδ (Fc fusion, UniProt P23468 21-1265) ETPPRFTRTPVDQTGVSGGVASFICQATGDPRPKIVWNKKGKKVSNQRFEVIEFDDGSGSVLRIQPLRTPRDEAIYECVASNNVGEISVSTRLTVLREDQIPRGFPTIDMGPQLKVVERTRTATMLCAASGNPDPEITWFKDFLPVDTSNNNGRIKQLRSESIGGTPIRGALQIEQSEESDQGKYECVATNSAGTRYSAPANLYVRELREVRRVPPRFSIPPTNHEIMPGGSVNITCVAVGSPMPYVKWMLGAEDLTPEDDMPIGRNVLELNDVRQSANYTCVAMSTLGVIEAIAQITVKALPKPPGTPVVTESTATSITLTWDSGNPEPVSYYIIQHKPKNSEELYKEIDGVATTRYSVAGLSPYSDYEFRVVAVNNIGRGPPSEPVLTQTSEQAPSSAPRDVQARMLSSTTILVQWKEPEEPNGQIQGYRVYYTMDPTQHVNNWMKHNVADSQITTIGNLVPQKTYSVKVLAFTSIGDGPLSSDIQVITQTGVPGQPLNFKAEPESETSILLSWTPPRSDTIANYELVYKDGEHGEEQRITIEPGTSYRLQGLKPNSLYYFRLAARSPQGLGASTAEISARTMQSKPSAPPQDISCTSPSSTSILVSWQPPPVEKQNGIITEYSIKYTAVDGEDDKPHEILGIPSDTTKYLLEQLEKWTEYRITVTAHTDVGPGPESLSVLIRTNEDVPSGPPRKVEVEAVNSTSVKVSWRSPVPNKQHGQIRGYQVHYVRMENGEPKGQPMLKDVMLADAQWEFDDTTEHDMIISGLQPETSYSLTVTAYTTKGDGARSKPKLVSTTGAVPGKPRLVINHTQMNTALIQWHPPVDTFGPLQGYRLKFGRKDMEPLTTLEFSEKEDHFTATDIHKGASYVFRLSARNKVGFGEEMVKEISIPEEVPTGFPQNLHSEGTTSTSVQLSWQPPVLAERNGIITKYTLLYRDINIPLLPMEQLIVPADTTMTLTGLKPDTTYDVKVRAHTSKGPGPYSPSVQFRTLPVDQVFAKNFHVKAVMKTSVLLSWEIPENYNSAMPFKILYDDGKMVEEVDGRATQKLIVNLKPEKSYSFVLTNRGNSAGGLQHRVTAKTAPDVLRTKPAFIGKTNLDGMITVQLPEVPANENIKGYYIIIVPLKKSRGKFIKPWESPDEMELDELLKEISRKRRSIRYGREVELKPYIAAHFDVLPTEFTLGDDKHYGGFTNKQLQSGQEYVFFVLAVMEHAESKMYATSPYSDPVVSMDLDPQPITDEEE | binds | binds |  |
| HA-tagged full-length SLITRK2 wild-type (protein, UniProt Q9H156 22-845) RKTAKDICKIRCLCEEKENVLNINCENKGFTTVSLLQPPQYRIYQLFLNGNLLTRLYPNEFVNYSNAVTLHLGNNGLQEIRTGAFSGLKTLKRLHLNNNKLEILREDTFLGLESLEYLQADYNYISAIEAGAFSKLNKLKVLILNDNLLLSLPSNVFRFVLLTHLDLRGNRLKVMPFAGVLEHIGGIMEIQLEENPWNCTCDLLPLKAWLDTITVFVGEIVCETPFRLHGKDVTQLTRQDLCPRKSASDSSQRGSHADTHVQRLSPTMNPALNPTRAPKASRPPKMRNRPTPRVTVSKDRQSFGPIMVYQTKSPVPLTCPSSCVCTSQSSDNGLNVNCQERKFTNISDLQPKPTSPKKLYLTGNYLQTVYKNDLLEYSSLDLLHLGNNRIAVIQEGAFTNLTSLRRLYLNGNYLEVLYPSMFDGLQSLQYLYLEYNVIKEIKPLTFDALINLQLLFLNNNLLRSLPDNIFGGTALTRLNLRNNHFSHLPVKGVLDQLPAFIQIDLQENPWDCTCDIMGLKDWTEHANSPVIINEVTCESPAKHAGEILKFLGREAICPDSPNLSDGTVLSMNHNTDTPRSLSVSPSSYPELHTEVPLSVLILGLLVVFILSVCFGAGLFVFVLKRRKGVPSVPRNTNNLDVSSFQLQYGSYNTETHDKTDGHVYNYIPPPVGQMCQNPIYMQKEGDPVAYYRNLQEFSYSNLEEKKEEPATPAYTISATELLEKQATPREPELLYQNIAERVKELPSAGLVHYNFCTLPKRQFAPSYESRRQNQDRINKTVLYGTPRKCFVGQSKPNHPLLQAKPQSEPDYLEVLEKQTAISQL |  |  | binds |
